Results are given in words; binding and its absence hold for the method and conditions named. Binding seen in cells or lysates may run through a third protein. Some binding calls cover weakened binding; strength is not graded here. For some assays here: Sequences can lack the tags named with a protein.

The chains behind the UniProt entries cited, without tags or fusion partners. Where a name states a change or a piece, a line headed by the entry shows the natural chain unless it says otherwise.
UniProt P32597: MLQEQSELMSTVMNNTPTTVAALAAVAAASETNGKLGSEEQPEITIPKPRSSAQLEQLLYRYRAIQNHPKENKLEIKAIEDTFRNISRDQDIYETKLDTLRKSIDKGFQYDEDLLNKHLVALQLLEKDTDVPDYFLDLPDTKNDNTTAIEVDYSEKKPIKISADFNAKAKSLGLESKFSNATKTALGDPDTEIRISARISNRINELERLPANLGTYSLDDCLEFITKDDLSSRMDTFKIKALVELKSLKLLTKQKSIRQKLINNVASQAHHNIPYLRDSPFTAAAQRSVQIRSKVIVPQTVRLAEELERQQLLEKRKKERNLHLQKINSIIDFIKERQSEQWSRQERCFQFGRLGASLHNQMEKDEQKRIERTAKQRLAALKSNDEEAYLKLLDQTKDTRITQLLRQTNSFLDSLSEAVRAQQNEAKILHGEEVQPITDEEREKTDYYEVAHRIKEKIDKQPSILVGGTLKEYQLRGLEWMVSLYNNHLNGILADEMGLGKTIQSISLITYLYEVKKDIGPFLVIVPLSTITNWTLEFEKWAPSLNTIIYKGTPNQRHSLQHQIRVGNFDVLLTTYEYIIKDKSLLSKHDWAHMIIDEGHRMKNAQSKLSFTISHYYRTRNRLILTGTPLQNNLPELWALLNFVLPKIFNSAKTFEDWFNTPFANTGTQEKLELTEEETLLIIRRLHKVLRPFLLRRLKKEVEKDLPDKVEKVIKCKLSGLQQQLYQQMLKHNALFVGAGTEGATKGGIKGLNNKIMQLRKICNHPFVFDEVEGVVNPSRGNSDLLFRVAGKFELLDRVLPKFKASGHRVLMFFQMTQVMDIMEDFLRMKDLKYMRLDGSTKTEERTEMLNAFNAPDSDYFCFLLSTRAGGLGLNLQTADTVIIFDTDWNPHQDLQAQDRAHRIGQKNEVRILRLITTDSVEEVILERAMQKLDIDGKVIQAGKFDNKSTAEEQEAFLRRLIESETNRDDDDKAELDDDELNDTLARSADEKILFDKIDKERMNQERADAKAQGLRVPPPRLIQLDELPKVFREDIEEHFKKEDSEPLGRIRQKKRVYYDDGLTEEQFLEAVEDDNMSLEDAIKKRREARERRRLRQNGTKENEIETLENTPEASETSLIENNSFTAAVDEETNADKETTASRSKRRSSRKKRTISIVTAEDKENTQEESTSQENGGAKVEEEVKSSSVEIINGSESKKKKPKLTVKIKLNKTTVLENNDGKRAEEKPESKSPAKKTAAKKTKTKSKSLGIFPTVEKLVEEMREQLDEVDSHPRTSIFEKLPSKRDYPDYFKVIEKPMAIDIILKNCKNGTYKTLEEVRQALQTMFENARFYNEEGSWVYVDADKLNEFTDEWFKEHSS

Assay [1] deals with Sth1^K501R fused to a protein A tag (S. cerevisiae) (UniProt P32597). As to the kind of experiment: co-IP; protein A-tagged Sth1 precipitated on IgG coated Dynabeads from cell extracts in EBX buffer (50 mM HEPES-KOH pH 7.5, 100 mM KCl, 2.5 mM MgCl2, 10% glycerol, 0.25% Triton X-100, 1 mM DTT, benzonase); cells released from G1 into nocodazole arrest; also with Scc1 repressed, with Scc2 depleted, in G1 arrest, or with endogenous Scc2 replaced by full-length Scc2-Pk; immunoblot. In general terms: A western blot detects proteins with antibodies after separation by electrophoresis.

Assay [2] deals with Sth1 fused to a protein A tag (S. cerevisiae) (UniProt P32597). Described as above.
Assay [3] concerns the target T1, full-length Scc2 with a C-terminal Pk epitope tag (S. cerevisiae) (UniProt Q04002).
T1 sequence: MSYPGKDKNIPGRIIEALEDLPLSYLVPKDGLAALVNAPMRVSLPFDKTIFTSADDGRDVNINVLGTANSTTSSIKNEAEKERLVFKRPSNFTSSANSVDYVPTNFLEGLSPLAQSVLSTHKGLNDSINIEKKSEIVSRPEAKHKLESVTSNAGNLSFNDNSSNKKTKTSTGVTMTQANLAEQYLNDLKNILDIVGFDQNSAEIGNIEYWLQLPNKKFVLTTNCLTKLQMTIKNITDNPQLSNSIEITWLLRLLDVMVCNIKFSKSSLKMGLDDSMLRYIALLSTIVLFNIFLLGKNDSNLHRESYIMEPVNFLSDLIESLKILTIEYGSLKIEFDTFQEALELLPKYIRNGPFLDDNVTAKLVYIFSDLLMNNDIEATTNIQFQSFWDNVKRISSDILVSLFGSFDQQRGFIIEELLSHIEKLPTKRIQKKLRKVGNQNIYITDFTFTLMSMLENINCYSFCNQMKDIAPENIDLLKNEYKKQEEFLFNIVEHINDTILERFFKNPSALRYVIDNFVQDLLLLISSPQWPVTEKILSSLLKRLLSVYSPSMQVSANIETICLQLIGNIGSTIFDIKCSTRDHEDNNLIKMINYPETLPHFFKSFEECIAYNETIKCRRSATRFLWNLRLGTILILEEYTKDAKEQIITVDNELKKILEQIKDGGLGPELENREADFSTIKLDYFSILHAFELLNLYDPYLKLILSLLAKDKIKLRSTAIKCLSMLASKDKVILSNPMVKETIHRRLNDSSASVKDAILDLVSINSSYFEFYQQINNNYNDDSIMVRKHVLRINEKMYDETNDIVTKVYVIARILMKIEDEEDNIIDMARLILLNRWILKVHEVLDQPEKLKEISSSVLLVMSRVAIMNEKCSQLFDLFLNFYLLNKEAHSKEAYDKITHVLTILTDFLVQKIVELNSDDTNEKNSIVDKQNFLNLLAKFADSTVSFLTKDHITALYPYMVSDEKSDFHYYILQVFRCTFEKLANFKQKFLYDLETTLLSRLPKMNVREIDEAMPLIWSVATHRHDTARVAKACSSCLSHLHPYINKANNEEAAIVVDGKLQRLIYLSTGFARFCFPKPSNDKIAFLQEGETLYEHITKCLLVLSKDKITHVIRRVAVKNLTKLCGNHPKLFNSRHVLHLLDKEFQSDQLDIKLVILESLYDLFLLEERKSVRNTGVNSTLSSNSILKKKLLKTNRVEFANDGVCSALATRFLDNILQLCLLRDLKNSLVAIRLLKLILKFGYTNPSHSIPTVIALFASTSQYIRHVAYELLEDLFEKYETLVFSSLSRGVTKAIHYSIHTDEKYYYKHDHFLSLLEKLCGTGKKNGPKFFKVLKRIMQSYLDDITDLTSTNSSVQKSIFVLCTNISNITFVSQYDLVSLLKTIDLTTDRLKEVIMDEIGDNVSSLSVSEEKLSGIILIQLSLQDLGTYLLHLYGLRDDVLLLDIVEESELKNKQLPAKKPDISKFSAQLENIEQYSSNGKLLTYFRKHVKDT
As to the kind of experiment: co-IP; full-length Scc2, Scc2N or Scc2C immunoprecipitated from extracts of cells depleted of endogenous Scc2; co-immunoprecipitation of Scc4 (Figure S5B).

B1: Scc4 (protein, UniProt P40090 1-624)
chain: MENLGDKLSISQVYHLAQEYRDHAYSIANKIGSEEGLKQYYGLMNMSIQMFQLLKTKCTLSVLEDSKVTFEMVELLIQETYNFDLAELYISSLKERLQTHQSDTDLVEEIMRCEFLLLHDLPLMRDSKFHYKIALRNCNELVQYMVNLQDELYQNWASVFQYVGVMLCIKLKQHRRVKTSFHGLLSQCREKSQWKWFLNLCYVNYLLNERFPIPEDALQELRSTELHTVGPELYAWKLALEMVIQLCKDGNITDHLNEFKNFFDTNKQSLVTNEGKGCVIKIMPRIALKVELPMIFHYKELKNILLLLQSVSYIVNCYDEKGNFSRKFLPKVYSTTQKLIKNIAAGGVSMNELDSRIQTYKSILEFCEFYKVWEQTLLKGAVVTTESPKLGPSPGYVRLLQAMKVQFEGGGAVEEYTRLAQSGGTSSEVKMISLLNCYTVQAARVSRCSGDKQGELVEQCNKVWLQVEKLLQETDLQFNPIWECTVTILWLFSHFEPFSWNPLPCSDKQRAEYVSKLREFYSSNKFVAGEAVADNRFKLKKALLLQILVNYLGGRMLEHDLGEIYAISAKCFDMCRQQGGMRKVQYVIGIWHLMNCTVAMRGKDVALTNAKLEALVKQITSVKQ
Turning to B1, the binding result in assay [1], in assay [2] and in assay [3] was “binds” each time.

B2: Scc1 (protein, UniProt Q12158 1-566)
chain: MVTENPQRLTVLRLATNKGPLAQIWLASNMSNIPRGSVIQTHIAESAKEIAKASGCDDESGDNEYITLRTSGELLQGIVRVYSKQATFLLTDIKDTLTKISMLFKTSQKMTSTVNRLNTVTRVHQLMLEDAVTEREVLVTPGLEFLDDTTIPVGLMAQENSMERKVQGAAPWDTSLEVGRRFSPDEDFEHNNLSSMNLDFDIEEGPITSKSWEEGTRQSSRNFDTHENYIQDDDFPLDDAGTIGWDLGITEKNDQNNDDDDNSVEQGRRLGESIMSEEPTDFGFDLDIEKEAPAGNIDTITDAMTESQPKQTGTRRNSKLLNTKSIQIDEETENSESIASSNTYKEERSNNLLTPQPTNFTTKRLWSEITESMSYLPDPILKNFLSYESLKKRKIHNGREGSIEEPELNVSLNLTDDVISNAGTNDNSFNELTDNMSDFVPIDAGLNEAPFPEENIIDAKTRNEQTTIQTEKVRPTPGEVASKAIVQMAKILRKELSEEKEVIFTDVLKSQANTEPENITKREASRGFFDILSLATEGCIGLSQTEAFGNIKIDAKPALFERFINA
Turning to B2, the binding entry in assay [2] is “binds”.

B3: full-length Scc2 with a C-terminal Pk epitope tag (protein, UniProt Q04002 1-1493)
chain: T1 sequence
On to B3, for which the binding result in assay [2] is on record as “binds”.

(Values after PMC6527865.)
